Source: publication PMC12542728
Construct, isoform or probe ends are uncertain for at least one entry.

Tested on: LeCzcR (phosphorylated with acetyl phosphate) (Lysobacter enzymogenes YC36)
Experiment: EMSA
Settings: 30 mM acetyl phosphate, EMSA 10 uL, 20 ng biotin-DNA, 20 ng unlabeled competitor or 40 ng unrelated DNA, 25 C 30 min, 6% native PAGE, recombinant protein, residues 1-224, label: 5'-biotin on forward primer, probe letters rebuilt from the primers and the genome

“GGCCGGGTGAGTTTTGGTGAGCGAAGGTGAAGCAGATGAACGCCAGAGGCCGGCATTCGCGCATGCTGCTGGCATTATTTGTGGAAATTTCGATCACTCTTGATGCGCACGGCACCGCCGCGCGCGGGATCGTCCGCGCTCGAGGACCGCGACCGCACGGCGGCGACTCGCGAACCGCAGGCGTCGGCGCGGCCCACCCGCCCTGGCGATCCGGTCTAGCCGCAATCCGCCCCTACCA (double strand) [Lepsl promoter]”: binds.
“GGGTCGCCGATGATCGCGCAACCGCGCGCCGCGCTGAACCCTCTTTTGGCGGAGGCCGCGCCGCGCACGGGCCAAGCCGGCAGATGCGGTAAACCCCGGGGCGCGCATTCAGCTTCGACGGTAATCGCTTTCTTCCGCATCCGCGCCGGCGCGCGCGGCCCGGCATGGACGATCTGCGGCGCCGATCACTGACAGCGCTGTCAGCCACGGGACAAGGTGCGGCCCGT (double strand) [LegluB promoter]”: binds.
“TGGTGGTGGTCGGCCCGGTTATGCGCTCGCGCGCTCCGTGACGGCCGGACAGAGTGCTGCAGATAATGCCGGCGAATATTCGCGGCTAGGCCGCGGCGCCGTCAAAGGCGCAGGCCCGATTATCCTGCGACGCGGATCATTCTTTGGAAT (double strand) [Lehsaf promoter]”: binds.
